Data taken from PMC11655644, “Cardiocutaneous syndrome is caused by aggregation of iASPP mutants” (Cell Death Discovery, 2024).
No constants are given. Whether binding was seen depends on the method and setting. Binding seen in cells or lysates may run through a third protein. A result given as binding can be weak or reduced; the word gives no strength. Sequences can lack the tags named with a protein.

B1: Myc-tagged iASPP Y747X (domain or fragment, UniProt Q8WUF5 2-746)
chain: DSEAFQSARDFLDMNFQSLAMKHMDLKQMELDTAAAKVDELTKQLESLWSDSPAPPGPQAGPPSRPPRYSSSSIPEPFGSRGSPRKAATDGADTPFGRSESAPTLHPYSPLSPKGRPSSPRTPLYLQPDAYGSLDRATSPRPRAFDGAGSSLGRAPSPRPGPGPLRQQGPPTPFDFLGRAGSPRGSPLAEGPQAFFPERGPSPRPPATAYDAPASAFGSSLLGSGGSAFAPPLRAQDDLTLRRRPPKAWNESDLDVAYEKKPSQTASYERLDVFARPASPSLQLLPWRESSLDGLGGTGKDNLTSATLPRNYKVSPLASDRRSDAGSYRRSLGSAGPSGTLPRSWQPVSRIPMPPSSPQPRGAPRQRPIPLSMIFKLQNAFWEHGASRAMLPGSPLFTRAPPPKLQPQPQPQPQPQSQPQPQLPPQPQTQPQTPTPAPQHPQQTWPPVNEGPPKPPTELEPEPEIEGLLTPVLEAGDVDEGPVARPLSPTRLQPALPPEAQSVPELEEVARVLAEIPRPLKRRGSMEQAPAVALPPTHKKQYQQIISRLFHRHGGPGPGGPEPELSPITEGSEARAGPPAPAPPAPIPPPAPSQSSPPEQPQSMEMRSVLRKAGSPRKARRARLNPLVLLLDAALTGELEVVQQAVKEMNDPSQPNEEGITALHNAICGANYSIVDFLITAGANVNSPDSHGWTPLHCAASCNDTVICMALVQHGAAIFATTLSDGATAFEKCDPYREGYADCAT
B2: Myc-tagged iASPP A620P (protein, UniProt Q8WUF5 2-828)
chain: DSEAFQSARDFLDMNFQSLAMKHMDLKQMELDTAAAKVDELTKQLESLWSDSPAPPGPQAGPPSRPPRYSSSSIPEPFGSRGSPRKAATDGADTPFGRSESAPTLHPYSPLSPKGRPSSPRTPLYLQPDAYGSLDRATSPRPRAFDGAGSSLGRAPSPRPGPGPLRQQGPPTPFDFLGRAGSPRGSPLAEGPQAFFPERGPSPRPPATAYDAPASAFGSSLLGSGGSAFAPPLRAQDDLTLRRRPPKAWNESDLDVAYEKKPSQTASYERLDVFARPASPSLQLLPWRESSLDGLGGTGKDNLTSATLPRNYKVSPLASDRRSDAGSYRRSLGSAGPSGTLPRSWQPVSRIPMPPSSPQPRGAPRQRPIPLSMIFKLQNAFWEHGASRAMLPGSPLFTRAPPPKLQPQPQPQPQPQSQPQPQLPPQPQTQPQTPTPAPQHPQQTWPPVNEGPPKPPTELEPEPEIEGLLTPVLEAGDVDEGPVARPLSPTRLQPALPPEAQSVPELEEVARVLAEIPRPLKRRGSMEQAPAVALPPTHKKQYQQIISRLFHRHGGPGPGGPEPELSPITEGSEARAGPPAPAPPAPIPPPAPSQSSPPEQPQSMEMRSVLRKAGSPRKPRRARLNPLVLLLDAALTGELEVVQQAVKEMNDPSQPNEEGITALHNAICGANYSIVDFLITAGANVNSPDSHGWTPLHCAASCNDTVICMALVQHGAAIFATTLSDGATAFEKCDPYREGYADCATYLADVEQSMGLMNSGAVYALWDYSAEFGDELSFREGESVTVLRRDGPEETDWWWAALHGQEGYVPRNYFGLFPRVKPQRSKV

Target: HSP70 (human (endogenous in H1299))
Test: co-IP; H1299 transiently transfected with Myc-iASPP; RIPA lysate centrifuged, diluted 1:4 with IP buffer; endogenous HSP70 precipitated with anti-HSP70 and Protein G Dynabeads, anti-Myc blot

binding | Binder
binds | B1
no binding | B2
